Data as given in doi:10.1101/2023.11.08.566199.
Results are given in words; binding and its absence hold for the method and conditions named. Binding seen in cells or lysates may run through a third protein. Here binding means that the protein was enriched with, or labelled near, the bait; the list need not be complete.

Chains of the proteins cited; added tags and fusions are not shown.
UniProt O15085: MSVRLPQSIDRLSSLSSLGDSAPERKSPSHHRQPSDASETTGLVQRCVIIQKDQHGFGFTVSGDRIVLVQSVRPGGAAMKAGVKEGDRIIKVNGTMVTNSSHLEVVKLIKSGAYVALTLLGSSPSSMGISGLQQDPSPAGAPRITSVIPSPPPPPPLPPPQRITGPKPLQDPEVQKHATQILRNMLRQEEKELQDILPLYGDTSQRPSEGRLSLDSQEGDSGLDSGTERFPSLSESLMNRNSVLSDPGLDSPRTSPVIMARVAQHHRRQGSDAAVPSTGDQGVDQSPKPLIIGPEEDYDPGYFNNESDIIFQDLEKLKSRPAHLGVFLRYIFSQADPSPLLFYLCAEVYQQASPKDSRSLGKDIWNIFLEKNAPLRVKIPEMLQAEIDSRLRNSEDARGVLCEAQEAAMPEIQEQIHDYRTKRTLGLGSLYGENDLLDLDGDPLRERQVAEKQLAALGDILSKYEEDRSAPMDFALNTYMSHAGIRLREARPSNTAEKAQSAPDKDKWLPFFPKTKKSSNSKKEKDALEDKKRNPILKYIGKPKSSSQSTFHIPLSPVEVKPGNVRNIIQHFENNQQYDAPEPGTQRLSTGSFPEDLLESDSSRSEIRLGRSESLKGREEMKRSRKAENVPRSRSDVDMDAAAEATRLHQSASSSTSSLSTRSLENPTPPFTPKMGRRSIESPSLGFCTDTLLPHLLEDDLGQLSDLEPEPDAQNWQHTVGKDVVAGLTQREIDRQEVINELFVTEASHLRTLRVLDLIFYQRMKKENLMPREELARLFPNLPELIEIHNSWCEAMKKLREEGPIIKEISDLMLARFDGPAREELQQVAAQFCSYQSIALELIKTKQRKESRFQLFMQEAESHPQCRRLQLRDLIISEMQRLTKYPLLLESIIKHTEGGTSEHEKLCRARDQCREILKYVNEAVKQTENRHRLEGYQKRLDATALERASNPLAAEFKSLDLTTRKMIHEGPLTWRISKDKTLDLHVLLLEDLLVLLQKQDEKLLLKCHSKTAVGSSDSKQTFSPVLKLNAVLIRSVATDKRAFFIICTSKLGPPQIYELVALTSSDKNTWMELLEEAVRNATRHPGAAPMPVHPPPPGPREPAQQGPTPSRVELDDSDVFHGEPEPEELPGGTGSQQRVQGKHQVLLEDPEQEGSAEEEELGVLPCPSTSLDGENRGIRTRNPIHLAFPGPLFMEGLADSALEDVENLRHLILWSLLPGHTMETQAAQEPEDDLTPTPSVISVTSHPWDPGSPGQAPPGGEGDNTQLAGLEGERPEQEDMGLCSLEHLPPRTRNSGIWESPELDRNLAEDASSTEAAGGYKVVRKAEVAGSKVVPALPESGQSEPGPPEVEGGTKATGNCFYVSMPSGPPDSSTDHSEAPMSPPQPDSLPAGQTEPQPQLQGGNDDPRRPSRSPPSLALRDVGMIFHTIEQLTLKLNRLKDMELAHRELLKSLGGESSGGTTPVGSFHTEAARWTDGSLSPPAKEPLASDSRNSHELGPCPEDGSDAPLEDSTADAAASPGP

Biological target: V5- and TurboID-fused Solo (UniProt Q8TER5)
Assay: proximity labelling

binding: binds
Substance: PDZ-RhoGEF (endogenous, DLD-1 cells) (from UniProt O15085 1-1522)
